Laboratory results taken from patent US12295968B2, “Compositions and methods for targeted immunomodulatory antibodies and fusion proteins” (The Johns Hopkins University, priority 2010, dated 2025).
Some of these results come from one statement about several compounds together.

Test system: mouse NKG2D ligands (Rae-1)
Test: Quantitative real-time PCR of Rae1 transcripts in CT26 cells
Assay type: cell-based
Conditions: irinotecan 25 μg/ml or oxaliplatin 10 μg/ml

Which “time after which Rae1 mRNA reached a plateau” value does the source give for CCc1c2c(nc3ccc(OC(=O)N4CCC(N5CCCCC5)CC4)cc13)-c1cc3c(c(=O)n1C2)COC(=O)[C@]3(O)CC [irinotecan] here?
The value was 16 to 24 h.

And the “time by which Rae1 mRNA was induced” value?
The value was 2 to 4 h.
